This test deals with YAP (human (endogenous in Huh7, Huh7-H, HCCLM3, HCCLM3-H)) (UniProt P46937). Kind of test: co-IP; cell lysates in IP lysis buffer mixed with specific antibodies at 4°C, beads 2 h, Western blot; normal IgG as control; Huh7 and HCCLM3 cells (with or without ASMTL-AS1 overexpression), Huh7-H and HCCLM3-H cells (with or without ASMTL-AS1 shRNA); antibody used to precipitate not stated. A general note: A western blot detects proteins with antibodies after separation by electrophoresis.

By UniProt entry, the sequences of proteins in these tests, tags left out.
UniProt P46937: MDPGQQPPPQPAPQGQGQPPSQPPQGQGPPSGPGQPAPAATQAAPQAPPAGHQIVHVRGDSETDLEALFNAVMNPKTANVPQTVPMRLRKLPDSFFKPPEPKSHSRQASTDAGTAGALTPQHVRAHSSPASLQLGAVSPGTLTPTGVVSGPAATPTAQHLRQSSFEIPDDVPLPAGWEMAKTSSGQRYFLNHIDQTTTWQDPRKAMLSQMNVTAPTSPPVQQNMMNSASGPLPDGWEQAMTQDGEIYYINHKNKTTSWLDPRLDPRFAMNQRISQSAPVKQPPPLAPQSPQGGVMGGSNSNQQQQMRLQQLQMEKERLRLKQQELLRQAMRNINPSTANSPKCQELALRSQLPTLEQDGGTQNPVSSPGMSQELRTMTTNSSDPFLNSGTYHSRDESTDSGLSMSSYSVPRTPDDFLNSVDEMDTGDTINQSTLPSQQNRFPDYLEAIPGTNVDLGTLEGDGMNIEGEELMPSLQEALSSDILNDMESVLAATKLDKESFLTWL

Results are given in words; binding and its absence hold for the method and conditions named. Binding seen in cells or lysates may run through a third protein. Some binding calls cover weakened binding; strength is not graded here.

B1: NLK (enzyme, UniProt Q9UBE8 1-527)
chain: MSLCGARANAKMMAAYNGGTSAAAAGHHHHHHHHLPHLPPPHLHHHHHPQHHLHPGSAAAVHPVQQHTSSAAAAAAAAAAAAAMLNPGQQQPYFPSPAPGQAPGPAAAAPAQVQAAAAATVKAHHHQHSHHPQQQLDIEPDRPIGYGAFGVVWSVTDPRDGKRVALKKMPNVFQNLVSCKRVFRELKMLCFFKHDNVLSALDILQPPHIDYFEEIYVVTELMQSDLHKIIVSPQPLSSDHVKVFLYQILRGLKYLHSAGILHRDIKPGNLLVNSNCVLKICDFGLARVEELDESRHMTQEVVTQYYRAPEILMGSRHYSNAIDIWSVGCIFAELLGRRILFQAQSPIQQLDLITDLLGTPSLEAMRTACEGAKAHILRGPHKQPSLPVLYTLSSQATHEAVHLLCRMLVFDPSKRISAKDALAHPYLDEGRLRYHTCMCKCCFSTSTGRVYTSDFEPVTNPKFDDTFEKNLSSVRQVKEIIHQFILEQQKGNRVPLCINPQSAAFKSFISSTVAQPSEMPPSPLVWE
In the case of B1, the binding entry was “binds”.
